According to patent US20260266848A1, “COMPOSITIONS AND METHODS FOR DIAGNOSING AND TREATING DYSTONIA” (Duke University, priority 2023, published 2026):

B1: Mrc2 (protein, UniProt Q64449 31-1479, looked up)
C-type mannose receptor 2: ADSAAALLEPDVFLIFSQGMQGCLEAQGVQVRVTPVCNASLPAQRWKWVSRNRLFNLGATQCLGTGWPVTNTTVSLGMYECDREALSLRWQCRTLGDQLSLLLGARASNASKPGTLERGDQTRSGHWNIYGSEEDLCARPYYEVYTIQGNSHGKPCTIPFKYDNQWFHGCTSTGREDGHLWCATTQDYGKDERWGFCPIKSNDCETFWDKDQLTDSCYQFNFQSTLSWREAWASCEQQGADLLSITEIHEQTYINGLLTGYSSTLWIGLNDLDTSGGWQWSDNSPLKYLNWESDQPDNPGEENCGVIRTESSGGWQNHDCSIALPYVCKKKPNATVEPIQPDRWTNVKVECDPSWQPFQGHCYRLQAEKRSWQESKRACLRGGGDLLSIHSMAELEFITKQIKQEVEELWIGLNDLKLQMNFEWSDGSLVSFTHWHPFEPNNFRDSLEDCVTIWGPEGRWNDSPCNQSLPSICKKAGRLSQGAAEEDHGCRKGWTWHSPSCYWLGEDQVIYSDARRLCTDHGSQLVTITNRFEQAFVSSLIYNWEGEYFWTALQDLNSTGSFRWLSGDEVIYTHWNRDQPGYRRGGCVALATGSAMGLWEVKNCTSFRARYICRQSLGTPVTPELPGPDPTPSLTGSCPQGWVSDPKLRHCYKVFSSERLQEKKSWIQALGVCRELGAQLLSLASYEEEHFVAHMLNKIFGESEPESHEQHWFWIGLNRRDPREGHSWRWSDGLGFSYHNFARSRHDDDDIRGCAVLDLASLQWVPMQCQTQLDWICKIPRGVDVREPDIGRQGRLEWVRFQEAEYKFFEHHSSWAQAQRICTWFQADLTSVHSQAELDFLGQNLQKLSSDQEQHWWIGLHTLESDGRFRWTDGSIINFISWAPGKPRPIGKDKKCVYMTARQEDWGDQRCHTALPYICKRSNSSGETQPQDLPPSALGGCPSGWNQFLNKCFRIQGQDPQDRVKWSEAQFSCEQQEAQLVTIANPLEQAFITASLPNVTFDLWIGLHASQRDFQWIEQEPLLYTNWAPGEPSGPSPAPSGTKPTSCAVILHSPSAHFTGRWDDRSCTEETHGFICQKGTDPSLSPSPAATPPAPGAELSYLNHTFRLLQKPLRWKDALLLCESRNASLAHVPDPYTQAFLTQAARGLQTPLWIGLASEEGSRRYSWLSEEPLNYVSWQDEEPQHSGGCAYVDVDGTWRTTSCDTKLQGAVCGVSRGPPPRRINYRGSCPQGLADSSWIPFREHCYSFHMEVLLGHKEALQRCQKAGGTVLSILDEMENVFVWEHLQTAEAQSRGAWLGMNFNPKGGTLVWQDNTAVNYSNWGPPGLGPSMLSHNSCYWIQSSSGLWRPGACTNITMGVVCKLPRVEENSFLPSAALPESPVALVVVLTAVLLLLALMTAALILYRRRQSAERGSFEGARYSRSSHSGPAEATEKNILVSDMEMNEQQE
B2: Gart (protein, UniProt Q64737 2-1010, looked up)
Trifunctional purine …: AARVLVIGSGGREHTLAWKLAQSPQVKQVLVAPGNAGTACAGKISNAAVSVNDHSALAQFCKDEKIELVVVGPEAPLAAGIVGDLTSAGVRCFGPTAQAAQLESSKKFAKEFMDRHEIPTAQWRAFTNPEDACSFITSANFPALVVKASGLAAGKGVIVAKSQAEACRAVQEIMQEKSFGAAGETVVVEEFLEGEEVSCLCFTDGKTVAEMPPAQDHKRLLDGDEGPNTGGMGAYCPAPQVSKDLLVKIKNTILQRAVDGMQQEGAPYTGILYAGIMLTKDGPKVLEFNCRFGDPECQVILPLLKSDLYEVMQSTLDGLLSASLPVWLENHSAVTVVMASKGYPGAYTKGVEITGFPEAQALGLQVFHAGTALKDGKVVTSGGRVLTVTAVQENLMSALAEARKGLAALKFEGAIYRKDIGFRAVAFLQRPRGLTYKDSGVDIAAGNMLVKKIQPLAKATSRPGCSVDLGGFAGLFDLKAAGFKDPLLASGTDGVGTKLKIAQLCNKHDSIGQDLVAMCVNDILAQGAEPLFFLDYFSCGKLDLSTTEAVIAGIAAACQQAGCALLGGETAEMPNMYPPGEYDLAGFAVGAMERHQKLPQLERITEGDAVIGVASSGLHSNGFSLVRKIVERSSLQYSSPAPGGCGDQTLGDLLLTPTRIYSHSLLPIIRSGRVKAFAHITGGGLLENIPRVLPQKFGVDLDASTWRVPKVFSWLQQEGELSEEEMARTFNCGIGAALVVSKDQAEQVLHDVRRRQEEAWVIGSVVACPEDSPRVRVKNLIETIQTNGSLVANGFLKSNFPVQQKKARVAVLISGTGSNLQALIDSTRDPKSSSHIVLVISNKAAVAGLDRAERAGIPTRVINHKLYKNRVEFDNAVDHVLEEFSVDIVCLAGFMRILSGPFVRKWDGKMLNIHPSLLPSFKGSNAHEQVLEAGVTITGCTVHFVAEDVDAGQIILQEAVPVRRGDTVATLSERVKVAEHKIFPAALQLVASGAVQLREDGKIHWAKEQ
B3: Ap1b1 (protein, UniProt O35643 1-943, looked up)
AP-1 complex subunit beta-1: MTDSKYFTTTKKGEIFELKAELNSDKKEKKKEAVKKVIASMTVGKDVSALFPDVVNCMQTDNLELKKLVYLYLMNYAKSQPDMAIMAVNTFVKDCEDPNPLIRALAVRTMGCIRVDKITEYLCEPLRKCLKDEDPYVRKTAAVCVAKLHDINAQLVEDQGFLDTLKDLISDSNPMVVANAVAALSEIAESHPSSNLLDLNPQSINKLLTALNECTEWGQIFILDCLANYMPKDDREAQSICERVTPRLSHANSAVVLSAVKVLMKFMEMLSKDLDYYATLLKKLAPPLVTLLSAEPELQYVALRNINLIVQKRPEILKHEMKVFFVKYNDPIYVKLEKLDIMIRLASQANIAQVLAELKEYATEVDVDFVRKAVRAIGRCAIKVEQSAERCVSTLLDLIQTKVNYVVQEAIVVIKDIFRKYPNKYESVIATLCENLDSLDEPEARAAMIWIVGEYAERIDNADELLESFLEGFHDESTQVQLQLLTAIVKLFLKKPTETQELVQQVLSLATQDSDNPDLRDRGYIYWRLLSTDPVAAKEVVLAEKPLISEETDLIEPTLLDELICYIGTLASVYHKPPNAFVEGGRGVVHKSLPPRTASSESTESPETAPAGAPAGDQPDVIPAQGDLLGDLLNLDLGPPVSGPPLAASSVQMGAVDLLGGGLDSLIGDSNFGAPSASVAAAPAPARLGAPISSGLSDLFDLTSGVGTLSGSYVAPKAVWLPAMKAKGLEISGTFTRQAGSISMDLQLTNKALQVMTDFAIQFNRNSFGLAPAAPLQVHVPLSPNQTVEISLPLNTVGSVLKMEPLNNLQVAVKNNIDVFYFSTLYPLHVLFVEDGKMDRQMFLATWKDIANENEAQFQIRDCPLNTEAASNKLQSSNIFTVAKRNVEGQDMLYQSLKLTNGIWVLAELRIQPGNPSFTLSLKCRAPEVSQHVYQAYETILKN

How the values were obtained:
Format in all cases: cell-based, mouse
[1] = tested on: DYT-TOR1A MEF EVs; assay: Quantitative LC-MS/MS proteomics of EVs from drug-treated DYT-TOR1A MEF cultures (ritonavir, salubrinal); conditions: for DYT1/DYT1 + Sal: Directionality of protein change in MEFs EV dataset in DYT1 derived MEFs treated with salubrinal; for RTV Corrective Direction: Ritonavir; for RTV Corrective Direction / Sal Corrective Direction: was treatment in MEF's in the direction of WT-like?; for Sal Corrective Direction: Salubrinal; for DYT1/DYT1 + RTV: Directionality of protein change in MEFs EV dataset in DYT1 derived MEFs treated with Ritonavir
[2] = tested on: WT MEF EVs; assay: Quantitative LC-MS/MS proteomics of EVs from ISRIB-treated WT MEF cultures; conditions: Directionality of protein change in MEFs EV dataset in WT derived MEFs treated with ISRIB
[3] = tested on: DYT-TOR1A MEF EVs; assay: Quantitative LC-MS/MS proteomics of MEF EVs, DYT-TOR1A genotype vs WT; conditions: Directionality of protein change in MEFs EV dataset between WT and DYT1 derived MEFs

Row | Molecule | DYT1/DYT1 + Sal [1] | RTV Corrective Direction [1] | Sal Corrective Direction [1] | WT + ISRIB/WT [2] | DYT1/DYT1 + RTV [1] | DYT1/WT [3]
1 | B1 | DOWN | Yes | No | DOWN | – | –
2 | B2 | DOWN | Yes | Yes | DOWN | DOWN | DOWN
3 | B3 | DOWN | Yes | Yes | DOWN | DOWN | DOWN
